Measured values from patent US20130216615A1, “Pharmaceutical Compositions Containing Dimethyl Fumarate” (priority 2012, published 2013).

System: PGD2
Assay: PGD2 metabolites in plasma and urine
Format: in vivo, human
Experimental: The potential importance of PGD2 in the flushing response was assessed by measuring metabolites of PGD2 in plasma and urine. PGF2α, 9α was measured in plasma samples drawn immediately before dosing and at 0.5, 1, 2, 3, 4, 6, 8, 10 and 12 h on days 1 and 4. The concentrations of PGF2α, 9α were determined by gas chromatography-mass spectrometry (GC-MS) using d4-8-iso-PGF2α as internal standard. The major urinary metabolite of PGD2 is prostaglandin D-M (PGD-M). The levels of PGD-M in urine were assayed by GC-MS of pooled urine samples collected for 8 h on day −1, and between 0 h and 8 h on days 1 and 4. ^18O-labeled PGD-M was used as internal standard.

## COC(=O)/C=C/C(=O)OC [DMF, dimethyl fumarate]
DMF alone, day 1, around 2-4 h
  Plasma concentration of 9α, 11β-PGF2α: elevated
DMF alone, day 4
  Plasma concentration of 9α, 11β-PGF2α: no major elevations
DMF plus aspirin
  urine PGD-M level: not seen
DMF plus aspirin, day 1 and day 4
  Plasma concentration of 9α, 11β-PGF2α: no elevation

Counter-ions that a name gives are not always drawn.
